The values below come from article doi:10.1101/2023.02.28.530553.

The test system of the data set is MBP-OsNLP4 (Oryza sativa L.). The experiment in a line: EMSA. A general note: In EMSA bound probe runs differently from free probe, usually more slowly.

The exact form of at least one protein or probe is not confirmed.

Take “TAATACTGTTGTTTGATACTAATGAGTCAAGTTG (double strand) [OsRFL promoter NRE probe (EMSA/OsRFL-3)]”: the binding result is “binds”.
